Measured values from article PMC8208822.
These are yes or no findings as the source states them, for the method shown. Some entries that bind do so weakly or less than the wild type.

T1: fragment (93-161 aa) of yeast (S. pombe) U2AF65 (U2AF59) (S. pombe) (UniProt P36629)
T1 sequence: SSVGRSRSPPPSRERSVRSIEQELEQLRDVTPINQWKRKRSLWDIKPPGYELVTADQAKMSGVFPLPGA


Target: T1, fragment (93-161 aa) of yeast (S. pombe) U2AF65 (U2AF59) (S. pombe)
Assay: co-expression and co-purification; untagged U2AF35 and His-StrepII-tagged U2AF65 (93-161 aa) co-expressed in E. coli BL21(DE3) from pETDuet-1; Ni-NTA column and StrepTrap column by the tag on the U2AF65 fragment; tags removed by TEV; size exclusion (Superdex S75) in 20 mM HEPES, pH 7.0, 100 mM NaCl

binding	Binder
binds	full-length yeast (S. pombe) U2AF35 (U2AF23) (protein, UniProt Q09176 1-216) MASHLASIYGTEQDKVNCSFYYKIGACRHGERCSRKHVKPNFSQTILCPNMYKNPIHEPNGKKFTQRELAEQFDAFYEDMFCEFSKYGEVEQLVVCDNVGDHLVGNVYVRFKYEESAQNAIDDLNSRWYSQRPVYAELSPVTDFREACCRQHETSECQRGGLCNFMHAKKPSPQLLRDLVLAQRKYLALNAAEEMKKEPNSDSTNRWVSVTAERKN
binds	yeast (S. pombe) U2AF35 (U2AF23) S34Y (protein, UniProt Q09176 1-216) MASHLASIYGTEQDKVNCSFYYKIGACRHGERCYRKHVKPNFSQTILCPNMYKNPIHEPNGKKFTQRELAEQFDAFYEDMFCEFSKYGEVEQLVVCDNVGDHLVGNVYVRFKYEESAQNAIDDLNSRWYSQRPVYAELSPVTDFREACCRQHETSECQRGGLCNFMHAKKPSPQLLRDLVLAQRKYLALNAAEEMKKEPNSDSTNRWVSVTAERKN
binds	yeast (S. pombe) U2AF35 (U2AF23) R35K (protein, UniProt Q09176 1-216) MASHLASIYGTEQDKVNCSFYYKIGACRHGERCSKKHVKPNFSQTILCPNMYKNPIHEPNGKKFTQRELAEQFDAFYEDMFCEFSKYGEVEQLVVCDNVGDHLVGNVYVRFKYEESAQNAIDDLNSRWYSQRPVYAELSPVTDFREACCRQHETSECQRGGLCNFMHAKKPSPQLLRDLVLAQRKYLALNAAEEMKKEPNSDSTNRWVSVTAERKN
binds	yeast (S. pombe) U2AF35 (U2AF23) R35S (protein, UniProt Q09176 1-216) MASHLASIYGTEQDKVNCSFYYKIGACRHGERCSSKHVKPNFSQTILCPNMYKNPIHEPNGKKFTQRELAEQFDAFYEDMFCEFSKYGEVEQLVVCDNVGDHLVGNVYVRFKYEESAQNAIDDLNSRWYSQRPVYAELSPVTDFREACCRQHETSECQRGGLCNFMHAKKPSPQLLRDLVLAQRKYLALNAAEEMKKEPNSDSTNRWVSVTAERKN
